# Test results as given in the supplement of paper PMC6411743.
# ± gives the standard deviation of the averaged measurements. This is one part of the list.
# Biological target: T1, CENPB (UniProt P07199)
# T1 sequence (whole entry): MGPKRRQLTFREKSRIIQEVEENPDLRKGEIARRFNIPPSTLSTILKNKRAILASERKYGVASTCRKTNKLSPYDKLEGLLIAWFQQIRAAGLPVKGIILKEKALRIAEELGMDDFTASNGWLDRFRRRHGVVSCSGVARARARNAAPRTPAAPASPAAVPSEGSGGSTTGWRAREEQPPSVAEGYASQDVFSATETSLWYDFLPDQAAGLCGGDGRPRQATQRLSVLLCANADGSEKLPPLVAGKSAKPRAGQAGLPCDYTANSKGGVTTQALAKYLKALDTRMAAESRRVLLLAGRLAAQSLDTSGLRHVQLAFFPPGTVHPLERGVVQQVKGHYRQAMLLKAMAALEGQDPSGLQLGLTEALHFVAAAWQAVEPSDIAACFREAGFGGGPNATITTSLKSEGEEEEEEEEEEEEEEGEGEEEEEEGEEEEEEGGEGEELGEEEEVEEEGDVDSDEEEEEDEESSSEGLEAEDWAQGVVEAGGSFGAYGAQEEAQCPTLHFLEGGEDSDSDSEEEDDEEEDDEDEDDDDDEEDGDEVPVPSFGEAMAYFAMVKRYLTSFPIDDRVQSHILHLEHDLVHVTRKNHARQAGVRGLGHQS
# Test: NP40-soluble protein abundance relative to vehicle (solubility fold change) (ratio); higher = more soluble protein in presence of GTP
# Protocol: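 Solubility proteome profiling in Jurkat crude lysate. Lysate was treated with Mg-GTP (0.1-10 mM) for 10 min at room temperature and 3 min at 37 °C, then solubilised with 0.8% NP40 and benzonase, followed by ultracentrifugation. Proteins were quantified by TMT10 LC-MS/MS; the value is the NP40-soluble abundance relative to the NP40-processed vehicle, from 3 independent experiments.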
smiles,measurement,setting,value
Nc1nc2c(ncn2[C@@H]2O[C@H](COP(=O)(O)OP(=O)(O)OP(=O)(O)O)[C@@H](O)[C@H]2O)c(=O)[nH]1 [guanosine triphosphate],NP40-soluble protein abundance,concentration: 0.1mM,1.11 ± 0.036
same,NP40-soluble protein abundance,concentration: 0.5mM,0.995 ± 0.021
same,NP40-soluble protein abundance,concentration: 1mM,1.05 ± 0.027
same,NP40-soluble protein abundance,concentration: 2mM,1.11 ± 0.089
same,NP40-soluble protein abundance,concentration: 4mM,0.979 ± 0.022
same,NP40-soluble protein abundance,concentration: 6mM,0.957 ± 0.074
same,NP40-soluble protein abundance,concentration: 8mM,1.04 ± 0.061
same,NP40-soluble protein abundance,concentration: 10mM,1.04 ± 0.05

# Reformatted as tab-separated lines: part of the list above.
smiles	measurement	setting	value
Nc1nc2c(ncn2[C@@H]2O[C@H](COP(=O)(O)OP(=O)(O)OP(=O)(O)O)[C@@H](O)[C@H]2O)c(=O)[nH]1 [guanosine triphosphate]	NP40-soluble protein abundance	concentration: 2mM	1.11 ± 0.089
same	NP40-soluble protein abundance	concentration: 4mM	0.979 ± 0.022
